The record followed here is paper PMC3815127.

Chains of the proteins cited; added tags and fusions are not shown. Lines headed by an entry give the natural chain unless they say otherwise; changes in a name come on top.
UniProt Q14974: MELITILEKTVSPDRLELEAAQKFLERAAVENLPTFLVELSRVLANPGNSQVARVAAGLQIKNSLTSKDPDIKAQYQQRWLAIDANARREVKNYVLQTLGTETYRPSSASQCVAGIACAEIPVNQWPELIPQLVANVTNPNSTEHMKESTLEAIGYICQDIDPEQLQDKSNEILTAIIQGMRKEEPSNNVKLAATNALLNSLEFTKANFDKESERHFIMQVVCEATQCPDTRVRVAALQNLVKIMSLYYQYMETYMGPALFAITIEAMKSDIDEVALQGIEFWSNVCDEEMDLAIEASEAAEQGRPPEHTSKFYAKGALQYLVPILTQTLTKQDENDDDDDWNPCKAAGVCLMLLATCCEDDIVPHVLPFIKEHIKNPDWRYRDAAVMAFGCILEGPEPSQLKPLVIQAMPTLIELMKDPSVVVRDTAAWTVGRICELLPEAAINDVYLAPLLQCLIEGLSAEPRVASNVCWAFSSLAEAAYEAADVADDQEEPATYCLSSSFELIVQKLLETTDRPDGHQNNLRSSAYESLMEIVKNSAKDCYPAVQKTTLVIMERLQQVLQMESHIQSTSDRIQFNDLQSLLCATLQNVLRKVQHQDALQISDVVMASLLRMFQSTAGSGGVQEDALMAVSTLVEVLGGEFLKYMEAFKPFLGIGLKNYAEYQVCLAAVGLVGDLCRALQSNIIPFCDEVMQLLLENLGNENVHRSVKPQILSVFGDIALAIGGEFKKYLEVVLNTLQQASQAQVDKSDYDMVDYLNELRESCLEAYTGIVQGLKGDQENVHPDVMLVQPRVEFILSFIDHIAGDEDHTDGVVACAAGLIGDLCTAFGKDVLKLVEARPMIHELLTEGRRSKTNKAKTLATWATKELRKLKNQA
UniProt P17028: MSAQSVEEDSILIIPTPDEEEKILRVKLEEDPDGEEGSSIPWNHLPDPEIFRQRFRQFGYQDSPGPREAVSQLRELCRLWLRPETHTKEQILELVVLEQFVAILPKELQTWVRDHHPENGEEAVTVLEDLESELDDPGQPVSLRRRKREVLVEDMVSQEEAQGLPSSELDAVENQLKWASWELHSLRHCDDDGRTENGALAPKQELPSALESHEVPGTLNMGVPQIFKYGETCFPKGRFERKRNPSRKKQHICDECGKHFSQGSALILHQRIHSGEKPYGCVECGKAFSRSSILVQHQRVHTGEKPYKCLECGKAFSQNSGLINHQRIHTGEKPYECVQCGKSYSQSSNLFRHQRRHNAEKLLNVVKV

These are yes or no findings as the source states them, for the method shown. Binding seen in cells or lysates may run through a third protein. Some results given as binding are weak or reduced against the parent protein; the word gives no strength.

The target of the test is Importin-β1 (human (endogenous in HEK293)) (UniProt Q14974). Nature of the test: co-IP; Importin-β1 immunoprecipitated from 500 µg pre-cleared whole cell lysate of HEK293 cells transiently expressing GFP-tagged ZNF24 proteins, 1.0 µg Karyopherin-β1 antibody (or mouse IgG as control) 2 h, Protein A/G beads overnight at 4°C; blotted with anti-GFP or anti-importin.

As to “Full-length human ZNF24 fused to GFP (ZNF24-GFP, wild type) (from UniProt P17028 1-368)”, the binding result is given as “binds”. With “ZNF24 residues 1-250 fused to GFP (1-250-GFP; whole ZF region deleted) (from UniProt P17028 1-250) (domain or fragment)” the entry was “no binding”.
